Measurements from PubChem BioAssay AID2517 (National Center for Advancing Translational Sciences (NCATS), 2010).
“And” between values parts separate entries of the source, which are not always exact repeats. Equal entries are not always repeated. Out of some 350,000 compounds screened, about 1,200 (0.34%) were called active. Inconclusive results, whose numbers are uncertain, are shown with a selection of clear calls. Calls come from the whole dose curve; as a rule, active = well fitted inhibition curve with a large enough effect; inconclusive = small, poorly fitted or top-dose-only effect; inactive = no such curve, though single readings can be large or run the other way. Where the call is inconclusive, the potency comes from a doubtful curve fit.

The chains behind the UniProt entries cited, without tags or fusion partners.
UniProt P27695, whole entry, looked up: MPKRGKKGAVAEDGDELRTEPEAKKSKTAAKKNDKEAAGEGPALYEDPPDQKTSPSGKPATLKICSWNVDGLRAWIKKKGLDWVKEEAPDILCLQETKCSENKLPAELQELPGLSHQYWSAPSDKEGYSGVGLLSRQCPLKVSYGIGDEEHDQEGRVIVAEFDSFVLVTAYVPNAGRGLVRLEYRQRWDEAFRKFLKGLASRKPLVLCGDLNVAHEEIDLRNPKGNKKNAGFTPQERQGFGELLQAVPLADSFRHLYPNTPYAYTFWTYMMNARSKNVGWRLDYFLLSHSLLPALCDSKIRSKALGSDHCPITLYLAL

Target: DNA repair nuclease/redox regulator APEX1 (Homo sapiens) (UniProt P27695)
Assay: qHTS Assay for Inhibitors of the Human Apurinic/apyrimidinic Endonuclease 1 (APE1); note: nearly all actives have a fitted effect of over 55% in size
Conditions: recombinant APE1, TAMRA/BHQ-2 abasic DNA cleavage fluorescence; series mostly up to 65.8 µM
Outline: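 Kinetic fluorescence read (525 ex/598 em nm, three reads 60 s apart) of AP-site incision; signal = third minus first read. Enzyme 0.75 nM, dual-labelled THF duplex 50 nM, compound preincubation 15 min RT.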
Potency is the fitted concentration of half-maximal effect.

SMILES	Potency
C[C@H](N)Cc1cnc[nH]1	inactive
CC(C)Oc1cccc(NC(=O)c2cccn(Cc3ccc4c(c3)OC(F)(F)O4)c2=O)c1	inconclusive: 3.55 µM [inhibitor, single point]
c1ccc(P(c2ccccc2)c2ccccc2)cc1	inactive
C=CCOC(=O)c1ccccc1N	inactive
Cc1ccc(N2C(=O)/C(=C/c3ccc(CN(CCC#N)S(C)(=O)=O)o3)C(=O)NC2=S)cc1	inconclusive: 35.5 µM [inhibitor, single point]
CCCCn1c(N)c(C(=O)OCCOC)c2nc3ccccc3nc21	inconclusive: 39.8 µM [inhibitor, single point]
COc1ccccc1-n1c(O)c(C=Nc2c(C)n(C)n(-c3ccccc3)c2=O)c(=O)[nH]c1=O	inactive
c1ccc(NNc2ccccc2)cc1	inactive
CC(C)c1ccc(N2C(=O)NC(=O)/C(=C/c3cnc(-c4ccccc4)nc3)C2=O)cc1	inactive
c1ccc2cc3c(cc2c1)-c1cccc2cccc-3c12	inactive
CC(=O)CC(c1ccc(O)cc1)c1c(O)c2ccccc2oc1=O (stereo unspecified)	inactive
CCOC(=O)c1c(-c2ccc(OC)cc2)oc2ccc(OC(=O)N(C)C)cc12	inactive
CCCCN1C(=O)/C(=C\c2ccco2)C(=O)N(CCc2ccccc2)C1=O	inconclusive: 35.5 µM [inhibitor, single point]
CON(C)C(=O)Nc1ccc(Br)c(Cl)c1	inactive
O=[N+]([O-])c1cc(O)c(O)c([N+](=O)[O-])c1	inactive and inconclusive: 4.47 µM [inhibitor, full curve, poor fit] and inconclusive: 20 µM [inhibitor, partial curve, poor fit]
O=C1NC(=O)N(Cc2ccco2)C(=O)/C1=C/c1ccc(-c2cccc([N+](=O)[O-])c2)o1	active: 28.2 µM
C=CC(=O)OCCN(C)C	inactive
CC1CN=C(Nc2cccc3ccccc23)S1 (stereo unspecified)	inconclusive: 22.4 µM [inhibitor, single point]
COc1ccc(CN2C(=O)NC(=O)/C(=C/c3ccc([N+](=O)[O-])s3)C2=O)cc1	inconclusive: 31.6 µM [inhibitor, single point]
CC1Oc2cc3c(-c4c(O)cc(O)c5c(O)c6c(cc45)OC(C)C(C)C6=O)c(O)cc(O)c3c(O)c2C(=O)C1C (stereo unspecified)	inconclusive: 11.2 µM [inhibitor, partial curve]
O=c1[nH]c(=O)n(CCC2=CCCCC2)c(O)c1C=NCCCn1ccnc1	inactive
CC1=CC(=O)c2c(O)cccc2C1=O	inconclusive: 28.2 µM [inhibitor, partial curve]
CC(C)=CCOc1c2occc2cc2ccc(=O)oc12	inconclusive: 0.0282 µM [inhibitor, full curve, poor fit]

Some of the entries so far, as a markdown table:

| SMILES | Potency |
| --- | --- |
| CON(C)C(=O)Nc1ccc(Br)c(Cl)c1 | inactive |
| O=[N+]([O-])c1cc(O)c(O)c([N+](=O)[O-])c1 | inactive and inconclusive: 4.47 µM [inhibitor, full curve, poor fit] and inconclusive: 20 µM [inhibitor, partial curve, poor fit] |
| O=C1NC(=O)N(Cc2ccco2)C(=O)/C1=C/c1ccc(-c2cccc([N+](=O)[O-])c2)o1 | active: 28.2 µM |
| C=CC(=O)OCCN(C)C | inactive |
| CC1CN=C(Nc2cccc3ccccc23)S1 (stereo unspecified) | inconclusive: 22.4 µM [inhibitor, single point] |
| COc1ccc(CN2C(=O)NC(=O)/C(=C/c3ccc([N+](=O)[O-])s3)C2=O)cc1 | inconclusive: 31.6 µM [inhibitor, single point] |
| CC1Oc2cc3c(-c4c(O)cc(O)c5c(O)c6c(cc45)OC(C)C(C)C6=O)c(O)cc(O)c3c(O)c2C(=O)C1C (stereo unspecified) | inconclusive: 11.2 µM [inhibitor, partial curve] |
| O=c1[nH]c(=O)n(CCC2=CCCCC2)c(O)c1C=NCCCn1ccnc1 | inactive |
| CC1=CC(=O)c2c(O)cccc2C1=O | inconclusive: 28.2 µM [inhibitor, partial curve] |

(further entries)

SMILES	Potency
CC(Cc1ccc(OCC(=O)O)cc1)NCC(O)c1cccc(Cl)c1 (stereo unspecified)	inconclusive: 25.1 µM [inhibitor, single point]
CN1CCC(N2CC3CC(C2)c2cccc(=O)n2C3)CC1 (stereo unspecified)	inactive
COC(=O)C12CC3=CCC4C(=O)N(c5ccccc5)C(=O)C4C3Cc3ccccc3[C@@H]1CNC2=O (stereo partly specified)	inactive
Cn1c(=O)oc2cc(S(=O)(=O)N3CCC(C(=O)Nc4ccc(OC(F)(F)F)cc4)CC3)ccc21	inconclusive: 44.7 µM [inhibitor, single point]
COc1ccc(CN2C(=O)NC(=O)/C(=C\c3ccco3)C2=O)cc1	active: 22.4 µM
CCc1ccc(CNCCc2ccc(F)cc2)cc1	inconclusive: 0.126 µM [inhibitor, full curve, poor fit]
CCN(CC)CCO[C@H]1CC[C@@]2(C)C(=CC[C@@H]3[C@H]2CC[C@]2(C)C(=O)CC[C@H]32)C1	inconclusive: 44.7 µM [inhibitor, single point]
Cn1ccnc1	inconclusive: 0.501 µM [inhibitor, full curve]
C[C@H](N)[C@H](O)c1ccc(O)c(O)c1	active: 501 nM and active: 794 nM
CCOc1ccc(OCC)c(NC(=O)CN2CCN(c3ccc(C)cc3C)CC2)c1	inconclusive: 28.2 µM [inhibitor, single point]
COc1cc2c(cc1OC)-c1c(OC)c(OC)c(OC)c3ccnc(c13)C2=O	inconclusive: 3.55 µM [inhibitor, single point]
COc1ccc(CN2CCN(Cc3ccccc3)CC2)c(OC)c1	inconclusive: 6.31 µM [inhibitor, partial curve, poor fit]
OC(CNC1CCCCC1)C(F)(F)F (stereo unspecified)	inconclusive: 0.112 µM [inhibitor, full curve]
COc1cc2c(cc1OC)-c1c(OC)c(OC)c(C=O)c3c1[C@H](C2)N(C)CC3	inconclusive: 39.8 µM [inhibitor, partial curve]
ClC(Cl)(Cl)c1ccccc1	inconclusive: 35.5 µM [inhibitor, partial curve]
COc1cc2c(cc1OC)-c1c(O)c(OC)cc3c1[C@H](C2)N(C)CC3	inconclusive: 39.8 µM [inhibitor, single point]
Cc1ccc2ccccc2c1	inactive
CN1C(=O)[C@]23CC4=CC=C[C@H](O)[C@H]4N2C(=O)[C@@]1(CO)SS3	inactive
CC1(C)[C@@H](O)C[C@H]2[C@](C)(O)[C@@H]3CC[C@H]4[C@@H](O)[C@@]3(C[C@@H](O)[C@@]21O)C[C@@]4(C)O	inconclusive: 7.08 µM [inhibitor, full curve]
C/C1=C\[C@@H](C)C/C=C/[C@H]2[C@@H]3O[C@]3(C)[C@@H](C)[C@H]3[C@H](Cc4c[nH]c5ccccc45)NC(=O)[C@]32C(=O)/C=C/C(=O)[C@@H]1O	active: 15.8 µM
O=[N+]([O-])c1cc(-c2ccc([As](=O)(O)O)cc2)ccc1[As](=O)(O)O	inconclusive: 14.1 µM [inhibitor, partial curve]
c1cc2c(cc1[C@H]1OC[C@@H]3[C@H]1CO[C@H]3c1ccc3c(c1)OCO3)OCO2	inactive
C/C(=N\NP(=S)(c1ccccc1)c1ccccc1)c1ccc(O)cc1O	inconclusive: 8.91 µM [inhibitor, single point]
